Measurements from PubChem BioAssay AID743255 (National Center for Advancing Translational Sciences (NCATS), 2014).
Screen size: about 390,000 compounds; about 910 (0.23%) were called active. This list was built around the results that the source calls inconclusive (neither active nor inactive); the mix of calls is not that of the screen. Calls follow the shape of the dose curve; as a rule, active = well fitted inhibition curve with a large enough effect; inconclusive = small, poorly fitted or top-dose-only effect; inactive = no such curve, though single readings can be large or run the other way. Where the call is inconclusive, the potency comes from a doubtful curve fit.

Amino acid sequences for entries named in this document (tags omitted). A change or cut given only in a name is not applied to a line headed by its entry.
UniProt O94782: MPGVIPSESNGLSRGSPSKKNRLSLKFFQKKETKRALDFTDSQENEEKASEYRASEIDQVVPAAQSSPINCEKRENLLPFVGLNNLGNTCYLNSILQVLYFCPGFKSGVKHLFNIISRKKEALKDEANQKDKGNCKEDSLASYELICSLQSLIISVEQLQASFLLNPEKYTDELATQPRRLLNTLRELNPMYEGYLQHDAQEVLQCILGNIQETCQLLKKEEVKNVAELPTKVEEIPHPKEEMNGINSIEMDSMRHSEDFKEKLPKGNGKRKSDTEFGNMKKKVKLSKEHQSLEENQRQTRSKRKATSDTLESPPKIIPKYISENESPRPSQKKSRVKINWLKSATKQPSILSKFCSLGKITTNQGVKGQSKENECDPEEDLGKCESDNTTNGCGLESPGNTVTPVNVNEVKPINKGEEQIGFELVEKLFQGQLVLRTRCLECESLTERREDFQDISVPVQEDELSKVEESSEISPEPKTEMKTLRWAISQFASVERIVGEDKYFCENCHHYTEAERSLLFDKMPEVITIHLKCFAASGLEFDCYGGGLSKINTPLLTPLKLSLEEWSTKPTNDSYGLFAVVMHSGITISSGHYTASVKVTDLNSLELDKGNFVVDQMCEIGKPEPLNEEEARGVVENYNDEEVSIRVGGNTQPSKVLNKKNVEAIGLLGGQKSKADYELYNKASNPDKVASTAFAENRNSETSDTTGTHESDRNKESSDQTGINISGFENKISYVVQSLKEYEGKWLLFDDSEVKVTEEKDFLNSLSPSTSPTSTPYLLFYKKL

Target: Ubiquitin carboxyl-terminal hydrolase 1 (Homo sapiens) (UniProt O94782)
Assay: Inhibitors of USP1/UAF1: Primary Screen; also: nearly all actives have a fitted effect of over 60% in size
Conditions: recombinant USP1/UAF1, Ub-Rhodamine cleavage fluorescence; series mostly up to 57.1 µM
Summary of the method: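 1 nM enzyme complex + cpd, 15 min RT; start with Ub-Rho 150nM final; kinetic fluorescence ex 480/em 540, 6 reads q60 s. Buffer 50mM HEPES pH 7.8, 0.5mM EDTA, 0.1 mg/ml BSA, 1mM TCEP, 0.01% Tween-20.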
Potency is read from the fitted curve at half-maximal effect.

Potency, inactive:
COc1ccc(CCNC(=O)c2cc3c(=O)[nH]c4ccc(C)cc4c3s2)cc1OC
Cc1cc(C)n(-c2ccc(C(=O)N3CCN(S(=O)(=O)c4ccc(Cl)cc4)CC3)cc2)n1
CC(=O)c1cccc(NC(=O)c2cc(-c3ccc4c(c3)OCCO4)on2)c1
CC(C)CC1=NN(C(=O)c2ccncc2)C(O)(C(F)(F)F)C1 (centres undefined)
O=C(CN1CCc2cc3c(cc2C1)OCCCO3)Nc1cccc(Br)c1
O=[N+]([O-])c1ccc(N/N=C2/CCCCC2c2ccccn2)cc1 (centres undefined)
O=C(CCN1C(=O)/C(=C\c2ccccc2Cl)SC1=S)Nc1cccnc1
COc1cc(/C=N/Nc2nnc3c(n2)[nH]c2ccccc23)ccc1O
CCN(CC)S(=O)(=O)c1cc(C)ccc1NC(=S)Nc1cccnc1

Potency, inconclusive:
COc1ccc(CCNC(=O)CNC(=O)N2CC(=O)Nc3ccccc32)cc1 11.2 µM [inhibitor, partial curve, poor fit]
COc1ccc(S(=O)(=O)Nc2cccc3c2O[C@H](CN(C)Cc2ccc(Oc4ccccc4)cc2)[C@@H](C)CN([C@H](C)CO)C3=O)cc1 44.7 µM [inhibitor, partial curve, poor fit]
COC(=O)C1=CN(Cc2ccc(F)cc2)C=C(C(=O)OC)C1c1cc(OC)c(OC)c(OC)c1 28.2 µM [inhibitor, partial curve]
Cc1cc(O)c(CN2CCN(c3ccc(F)cc3)CC2)c2oc(=O)cc(C)c12 0.251 µM [inhibitor, full curve, poor fit]
CC(C)(C)c1nn(-c2ccccc2)c2[nH]c(=O)c(CNc3ccc4c(c3)OCCO4)cc12 5.62 µM [inhibitor, full curve, poor fit]
COc1ccc(S(=O)(=O)N2N=C(c3ccc(NS(C)(=O)=O)cc3)CC2c2ccco2)cc1 (centres undefined) 44.7 µM [inhibitor, partial curve]
Cc1ccc(-c2nnc(SCC(=O)NC3CCCC3)n2N)cc1 5.01 µM [inhibitor, full curve, poor fit]
COc1ccc(Nc2cc(C(=O)NCCCN(C)C3CCCCC3)c3ccccc3n2)cc1 8.91 µM [inhibitor, partial curve]
C/C(=N/NC(=O)CNC(=O)Cc1ccc(Cl)cc1)c1ccco1 39.8 µM [inhibitor, single point]
CCN1C(=O)/C(=C/C=C2\C=CN(CC)c3ccccc32)SC1=S 2.82 µM [inhibitor, full curve, poor fit]
O=C(CCCCC(=O)OCC1CCCO1)OCC1CCCO1 (centres undefined) 6.31 µM [inhibitor, single point]
CCN(CC)c1sc(S(=O)(=O)c2ccccc2)nc1S(=O)(=O)c1ccc(C)cc1 35.5 µM [inhibitor, partial curve, poor fit]
CCN(CCCNC(=O)c1cc2c(Cl)nc3ccccc3c2s1)Cc1ccccc1 3.55 µM [inhibitor, full curve, poor fit]
C=CCNC(=O)c1n[nH]c2c1CC(C(C)(C)CC)CC2 (centres undefined) 7.94 µM [inhibitor, full curve, poor fit]
C/C=C\C=C/C(=O)Nc1cccc(C2=NOC3(C2)C[C@H](C(N)=O)N(C(=O)Cc2ccc([N+](=O)[O-])cc2)C3)c1 (some centres undefined) 56.2 µM [inhibitor, partial curve, poor fit]
Cc1cc(SCC(=O)c2ccc3c(c2)OCO3)nc2ccccc12 31.6 µM [inhibitor, partial curve]
Cc1cccc(NC(=O)c2sc3nc(N4CCOCC4)c4c(c3c2N)CC(C)(C)OC4)c1 44.7 µM [inhibitor, partial curve, poor fit]
O=C(Nc1cccc(-c2cn3ccccc3n2)c1)c1cc2ccccc2oc1=O 15.8 µM [inhibitor, partial curve]
COc1ccc(/C(N)=N/OC(=O)c2cccs2)cc1OC 35.5 µM [inhibitor, partial curve, poor fit]
COc1ccc(-n2nnnc2SCC(=O)c2cc3ccccc3o2)cc1 31.6 µM [inhibitor, single point]
COc1ccc(C2=Nc3cccc4cccc(c34)N2)cc1 20 µM [inhibitor, partial curve]
COc1cccc2cc(-c3nnc(Nc4c(F)cccc4F)s3)c(=O)oc12 44.7 µM [inhibitor, partial curve, poor fit]
CCCN(C(=O)CCc1nc(-c2ccc(OC)cc2)no1)c1ccccc1F 50.1 µM [inhibitor, partial curve, poor fit]
CC1CCN(c2nc(-c3ccco3)c3c(c2C#N)CC(C)(C)OC3)CC1 31.6 µM [inhibitor, single point]
Cc1cc(C(=O)CSc2nnc(N)s2)c(C)n1CCc1ccc(F)cc1 44.7 µM [inhibitor, partial curve, poor fit]
COc1ccc(N2C=C3C(=O)C(C)(OC(=O)CCc4ccccc4)C(=O)C=C3C=C2c2ccc(C#N)cc2)cc1 (centres undefined) 0.282 µM [inhibitor, full curve, poor fit]
COc1ccc(S(=O)(=O)N(CC(=O)NCc2ccco2)c2ccccc2OC)cc1 35.5 µM [inhibitor, partial curve, poor fit]
CC(NC(=O)CCCC1CCCCC1)c1ccc(S(N)(=O)=O)cc1 (centres undefined) 0.251 µM [inhibitor, full curve, poor fit]

An excerpt from above in order of heavy-atom count, low to high:
Potency, inconclusive:
C/C(=N/NC(=O)CNC(=O)Cc1ccc(Cl)cc1)c1ccco1 39.8 µM [inhibitor, single point]
Cc1cc(C(=O)CSc2nnc(N)s2)c(C)n1CCc1ccc(F)cc1 44.7 µM [inhibitor, partial curve, poor fit]
O=C(Nc1cccc(-c2cn3ccccc3n2)c1)c1cc2ccccc2oc1=O 15.8 µM [inhibitor, partial curve]

Next part.

Potency, active:
Cc1ccc([C@@H]2C3COCC=C3C(C#N)=C(N)C2(C#N)C#N)o1 (some centres undefined) 31.6 µM
CCc1ccc(S(=O)(=O)/N=C2\C=C(Nc3cccc(C(=O)O)c3)C(=O)c3ccccc32)cc1 5.62 µM
